In PubChem BioAssay AID504834 (National Center for Advancing Translational Sciences (NCATS), 2011):
Among all 320,000 compounds or so, about 22,000 (6.9%) were called active. The inconclusive results got no clear call from the source; some entries with a clear call stand among them for comparison. Calls follow the shape of the dose curve; as a rule, active = well fitted inhibition curve with a large enough effect; inconclusive = small, poorly fitted or top-dose-only effect, or another doubt; inactive = no such curve, though single readings can be large or run the other way. Potencies beside an inconclusive call are fits to weak or partial responses and may not hold up.

Test: Primary qHTS for delayed death inhibitors of the malarial parasite plastid, 96 hour incubation
Conditions: P. falciparum luciferase reporter growth; series mostly up to 28.7 µM; activity change, negative = inhibition: at the top concentration
How it was run: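 Luminescence readout: decreased luciferase signal marks inhibited growth of reporter-expressing P. falciparum in infected red cells (2% hematocrit, 0.05% parasitemia final), exposed to compound two generations (96 h, 37 C, 5% CO2).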
% is scaled to controls: 0 for no effect and ±100 for the full control effect; potency is read from the fitted curve at half-maximal effect.

SMILES	activity change, negative = inhibition	Potency
COc1ccc(C(CNC(=O)c2ccc3c(c2)OCCO3)N(C)C)cc1 (centres undefined)	inactive: 6.52%	–
O=C(Cn1c(=O)c2cccn2c2ccccc21)Nc1ccc(F)cc1F	–	inconclusive: 18.5 µM [inhibitor, single point]
CCc1c(C)nc2ncnn2c1NCCc1ccccc1	–	inconclusive: 18.5 µM [inhibitor, single point]
CCCSc1nc(C)c2cc(C)cc(C)c2n1	–	inconclusive: 10.4 µM [inhibitor, single point]
CCc1nnc(NS(=O)(=O)c2ccc(NC(=O)c3cccc(Cl)c3)cc2)s1	inactive: 28.4%	–
O=C1c2cccc([N+](=O)[O-])c2C(=O)N1c1c[nH]c(=O)[nH]c1=O	–	inconclusive: 18.5 µM [inhibitor, single point]
CCS(=O)(=O)Nc1ccc(C(=O)NCCSc2ccccc2)cc1	–	inconclusive: 6.57 µM [inhibitor, partial curve]
CC(=O)c1ccc(NC(=O)C(C)Sc2nnc(C3CC3)n2C2CC2)cc1 (centres undefined)	–	inconclusive: 8.28 µM [inhibitor, partial curve, poor fit]
CC1(c2ccccc2)ON(c2ccccc2C(F)(F)F)C1=O (centres undefined)	–	inconclusive: 3.7 µM [inhibitor, full curve]
CCOC(=O)N1CCC(N2C(=O)c3ccc(C(=O)NCc4ccco4)cc3C2=O)CC1	–	active: 11.7 µM
Cc1nc2ccc(NC(=S)NC3CCCCC3)cc2nc1C	–	inconclusive: 0.0329 µM [inhibitor, full curve, poor fit]
CCOC(=O)c1cnc2ccc(C)cc2c1Sc1ccccc1C(=O)OC	–	inconclusive: 18.5 µM [inhibitor, single point]
CC1CCN(C(=S)NC(=O)c2cccs2)CC1	–	inconclusive: 0.037 µM [inhibitor, full curve, poor fit]
CC(C)c1cccc(C(C)C)c1NC(=S)Nc1cccc(Cl)c1	–	inconclusive: 18.5 µM [inhibitor, single point]
COc1ccc(NC(=O)CN2CCN(CC(=O)Nc3ccccc3Cl)CC2)cc1Cl	inactive: 73.8%	–
CC(=O)Oc1ccc(C(=O)Nc2ccccc2NC(=O)c2ccc(OC(C)=O)cc2)cc1	–	inconclusive: 18.5 µM [inhibitor, single point]
COC(=O)c1cc(NC(=O)C2CC(=O)NC(=NCc3ccc(OC)cc3)S2)cc(C(=O)OC)c1 (centres undefined)	inactive: 41.2%	–
Cn1c(=O)cc(SCC(=O)NCCCN2CCOCC2)c2ccccc21	–	inconclusive: 18.5 µM [inhibitor, single point]
Oc1ccc(C[C@H]2CNCCN2CC2CCCCC2)cc1	–	inconclusive: 18.5 µM [inhibitor, single point]
Cc1cc(NC(=O)C(C)SCC(=O)OCC(=O)Nc2c(C)cccc2C(C)C)no1 (centres undefined)	–	inconclusive: 18.5 µM [inhibitor, single point]
COCCNC(=S)N1CCN(c2nc(-c3ccc(Cl)cc3)cs2)CC1	–	inconclusive: 18.5 µM [inhibitor, single point]
CCOc1ccc(S(=O)(=O)N2CCCC(C(=O)NCCN3CCOCC3)C2)cc1Cl (centres undefined)	inactive: -1.77%	–
Cc1ccc(C(=O)N/C(=C\c2ccc(-c3ccc(Cl)cc3)o2)C(=O)NCCCN(C)C)cc1	–	active: 9.28 µM

SMILES	activity change, negative = inhibition	Potency
Cc1ccc(NC(=S)NCc2cccn2C)cc1	–	inconclusive: 3.29 µM [inhibitor, partial curve, poor fit]
CCOC(=O)c1ccc(-n2ncc(C(=O)OCC)c2N)cc1	–	inconclusive: 11.7 µM [inhibitor, single point]
O=C(NCC(=O)N1CCN(S(=O)(=O)/C=C/c2ccccc2)CC1)c1ccccc1F	–	inconclusive: 11.7 µM [inhibitor, single point]
O=C(NC1CCN(Cc2ccccc2Cl)CC1)c1ccccc1	–	inconclusive: 18.5 µM [inhibitor, single point]
CC(NC(=O)CNC(=O)c1sc2ccccc2c1Cl)c1ccc(S(N)(=O)=O)cc1 (centres undefined)	inactive: 47.2%	–
CCCCCCc1cc2cc(S(=O)(=O)c3ccc(F)cc3)c(=O)oc2cc1O	inactive: 17.9%	–
C=C1CCN([C@H](C(=O)NCc2ccc(Cl)c(Cl)c2)C(C)C)S(=O)(=O)c2ccccc21	–	inconclusive: 10.4 µM [inhibitor, partial curve, poor fit]
CCN(CC)Cc1c[nH]c2c(C(=O)OC)cccc12	–	active: 2.62 µM
O=C(N/C(=C/c1ccc(Cl)cc1)C(=O)N1CCCCC1)c1ccco1	inactive: -0.335%	–
Cc1nc(-c2ccc(C(=O)Nc3cccc(Br)c3)cc2)cs1	inactive: -8.87%	–
Cc1ccc2c(c1)c(C)c(C)n2CC(O)Cn1nnc2ccccc21 (centres undefined)	–	inconclusive: 18.5 µM [inhibitor, single point]
COc1ccc(-c2nnn(CC(=O)N(CC(=O)NCCC(C)C)c3ccccc3)n2)cc1OC	–	inconclusive: 7.38 µM [inhibitor, partial curve, poor fit]
COc1ccc(-n2c(Cc3cccn3C)nnc2SCC(=O)Nc2nc(C)cs2)cc1	–	inconclusive: 11.7 µM [inhibitor, single point]
NS(=O)(=O)c1ccc(NC(=O)CSc2cn[nH]n2)cc1	inactive: -12%	–
O=C(COc1ccccc1)N=C1SC2CS(=O)(=O)CC2N1c1cccc(F)c1 (centres undefined)	–	inconclusive: 11.7 µM [inhibitor, single point]
Cc1c(C(=O)N2CCCC2)oc2c1-c1nn(CC(=O)NCCCN3CCCCC3C)cc1CC2 (centres undefined)	–	inconclusive: 13.1 µM [inhibitor, single point]
COc1cc(NC(=O)c2cc(Cl)nnc2Cl)cc(OC)c1OC	–	inconclusive: 5.86 µM [inhibitor, partial curve, poor fit]
CCC(=O)c1ccc(N2CCN(C(=O)c3cc([N+](=O)[O-])ccc3N3CCN(C)CC3)CC2)c(F)c1	–	active: 9.28 µM
Cn1c(-c2ccccc2)c(C=O)c2ccccc21	–	inconclusive: 0.131 µM [inhibitor, full curve, poor fit]
Cc1cccc(-n2c(Cc3cc(=O)[nH]c(=O)[nH]3)nnc2SCC(=O)N2CCc3ccccc32)c1	–	inconclusive: 1.85 µM [inhibitor, partial curve, poor fit]
OCCN1CCN(CCC=C2c3ccccc3Sc3ccc(Cl)cc32)CC1	–	active: 4.55 µM
CC(C)(C)n1nnnc1CN(Cc1ccc(F)cc1)Cc1ccco1	–	inconclusive: 18.5 µM [inhibitor, single point]
c1coc(-c2nnc3sc(C4CCCCC4)nn23)c1	inactive: 18.2%	–

SMILES	activity change, negative = inhibition	Potency
O=C(Cc1ccc(N2CCNC2=O)cc1)N1CCCC(Nc2ccc(F)c(F)c2)C1 (centres undefined)	–	inconclusive: 18.5 µM [inhibitor, single point]
CC(C)c1ccc(NC(=O)[C@H](NC(=O)[C@@H]2Cc3ccccc3CN2)c2ccccc2)cc1	–	inconclusive: 18.5 µM [inhibitor, single point]
Cc1cccc(C(=O)N2CCC(=O)N(C(COCc3ccccc3)Cc3ccccc3)CC2)c1 (centres undefined)	–	active: 13.1 µM
CC1CCN(C(=O)CCC(=O)Nc2nnc(C3CCCCC3)s2)CC1	inactive: -23.1%	–
Cc1csc(=O)n1CC(=O)OCC(=O)NNC(=O)c1ccc(Cl)cc1	inactive: 17.1%	–
CCOc1ccc(NC(=O)CCC(=O)NNC(=O)NC2CCCCC2)cc1	inactive: 31.6%	–
COCCN1C2=C(C(=O)CC(C)(C)C2)C(c2ccc(O)c(OC)c2)C2=C1CC(C)(C)CC2=O	inactive: -21.5%	–
COC(=O)C1CN(C(=O)COc2cccc(C)c2C)c2ccccc2O1 (centres undefined)	inactive: -1.45%	–
Cc1ccc(NC(=O)/C=C/C(=O)O)c([N+](=O)[O-])c1	–	inconclusive: 18.5 µM [inhibitor, partial curve, poor fit]
O=C(Cn1cc[n+](CC(=O)c2ccc(Cl)cc2Cl)c1)c1ccc(Cl)cc1Cl	–	inconclusive: 18.5 µM [inhibitor, single point]
CC(C)c1ccc(N(CC(=O)NCCCN2CCOCC2)S(=O)(=O)c2ccccc2)cc1	–	inconclusive: 18.5 µM [inhibitor, single point]
COc1ccc(C(CCN2CCOCC2)c2c(OC)cc(OC)c3c(C)cc(=O)oc23)cc1 (centres undefined)	–	inconclusive: 18.5 µM [inhibitor, single point]
Cc1ccsc1CNCC(O)c1ccccc1 (centres undefined)	inactive: -25.8%	–
COc1ccc(COC(=O)C2=C(C)NC(=O)NC2c2cc(OC)ccc2OC)cc1 (centres undefined)	–	inconclusive: 0.131 µM [inhibitor, full curve, poor fit]
COc1ccc(NC(=O)CN2CCN(c3ccc(Cl)cc3)CC2)c(OC)c1	inactive: 6.3%	–
COCCn1c(SCC(=O)Nc2ccccc2OC)nc2c([nH]c3ccccc32)c1=O	–	active: 9.28 µM
Cc1cc(NS(=O)(=O)c2cn(C)nc2C)no1	–	inconclusive: 18.5 µM [inhibitor, single point]
CC(=O)Nc1ccc(S(=O)(=O)N2CCC(C(=O)NCCc3c[nH]c4ccccc34)CC2)cc1	–	inconclusive: 2.62 µM [inhibitor, partial curve]
O=C(NCCCN1CCOCC1)c1cc(-c2ccc(F)cc2)on1	inactive: 31.5%	–
O=C(NNC(=O)C1CCN(Cc2ccc(Cl)c(Cl)c2)CC1)c1cccs1	–	inconclusive: 0.465 µM [inhibitor, partial curve, poor fit]
COC(=O)[C@@H]1C[C@@H]2CC[C@@H](O)C[C@@H]2N1Cc1ccccc1OS(=O)(=O)c1ccc(C)cc1	–	inconclusive: 18.5 µM [inhibitor, single point]
COC(=O)c1scc(C#N)c1N/N=C(\C#N)S(=O)(=O)c1ccc(Cl)cc1	inactive: -24.3%	–
COc1cccc(C(=O)N(Cc2ccccc2)Cc2cc3cc4c(cc3[nH]c2=O)OCCO4)c1	–	inconclusive: 0.0928 µM [inhibitor, full curve, poor fit]

A draw from above in order of formula weight, low to high.
SMILES	activity change, negative = inhibition	Potency
Cc1cc(NS(=O)(=O)c2cn(C)nc2C)no1	–	inconclusive: 18.5 µM [inhibitor, single point]
Cc1csc(=O)n1CC(=O)OCC(=O)NNC(=O)c1ccc(Cl)cc1	inactive: 17.1%	–
CC(=O)Nc1ccc(S(=O)(=O)N2CCC(C(=O)NCCc3c[nH]c4ccccc34)CC2)cc1	–	inconclusive: 2.62 µM [inhibitor, partial curve]

As entered above:
Value for COC(=O)[C@@H]1C[C@@H]2CC[C@@H](O)C[C@@H]2N1Cc1ccccc1OS(=O)(=O)c1ccc(C)cc1 under Potency: inconclusive: 18.5 µM [inhibitor, single point]
Value for O=C(NNC(=O)C1CCN(Cc2ccc(Cl)c(Cl)c2)CC1)c1cccs1 under Potency: inconclusive: 0.465 µM [inhibitor, partial curve, poor fit]
